Data as given in PMC7596997.

B1: cytosolic domain of yeast Tom70 (His-Tom70_(38–617)) [yeast (Saccharomyces cerevisiae)] / ADP/ATP carrier (AAC) of Neurospora crassa, wild type [modified: [35S]-methionine; [35S]-methionine] [Neurospora crassa] (parent)
chain 1: MAEQQKVLGMPPFVADFLMGGVSAAVSKTAAAPIERIKLLVQNQDEMIRAGRLDRRYNGIIDCFKRTTADEGVMALWRGNTANVIRYFPTQALNFAFRDKFKKMFGYKKDVDGYWKWMAGNLASGGAAGATSLLFVYSLDYARTRLANDAKSAKKGGERQFNGLVDVYRKTIASDGIAGLYRGFGPSVAGIVVYRGLYFGLYDSIKPVLLVGDLKNNFLASFALGWCVTTAAGIASYPLDTIRRRMMMTSGEAVKYKSSFDAASQIVAKEGVKSLFKGAGANILRGVAGAGVLSIYDQLQVLLFGKAFKGGSG
chain 2: RGKKNTINKDEKKDTKDSQKETEGAKKSTAPSNPPIYPVSSNGEPDFSNKANFTAEEKDKYALALKDKGNQFFRNKKYDDAIKYYNWALELKEDPVFYSNLSACYVSVGDLKKVVEMSTKALELKPDYSKVLLRRASANEGLGKFADAMFDLSVLSLNGDFNDASIEPMLERNLNKQAMSKLKEKFGDIDTATATPTELSTQPAKERKDKQENLPSVTSMASFFGIFKPELTFANYDESNEADKELMNGLSNLYKRSPESYDKADESFTKAARLFEEQLDKNNEDEKLKEKLAISLEHTGIFKFLKNDPLGAHEDIKKAIELFPRVNSYIYMALIMADRNDSTEYYNYFDKALKLDSNNSSVYYHRGQMNFILQNYDQAGKDFDKAKELDPENIFPYIQLACLAYRENKFDDCETLFSEAKRKFPEAPEVPNFFAEILTDKNDFDKALKQYDLAIELENKLDGIYVGIAPLVGKATLLTRNPTVENFIEATNLLEKASKLDPRSEQAKIGLAQMKLQQEDIDEAITLFEESADLARTMEEKLQAITFAEAAKVQQRIRSDPVLAKKIQETLAKLREQGLM

Variants of: B1
Assay: Ni-NTA bead binding assay with [35S]-labeled protein, phosphorimager quantification
Details: Tom70cd C439A pretreated with 2 mM NEM, control = untreated C439A, n ≥ 6, read off a plot

| screen value | Variant |
| --- | --- |
| 63 % of control | chain 2 C402A |

Same assay, conditions: no NEM, this bar is the normalisation control (100%) of the C439A pair, not a comparison with wild type, n ≥ 6, read off a plot

| screen value | Variant |
| --- | --- |
| 100 % of control | chain 2 C402A |

Same assay, conditions: Tom70cd C450A pretreated with 2 mM NEM, control = untreated C450A, n ≥ 6, read off a plot

| screen value | Variant |
| --- | --- |
| 58 % of control | chain 2 C413A |

Same assay, conditions: no NEM, this bar is the normalisation control (100%) of the C450A pair, not a comparison with wild type, n ≥ 6, read off a plot

| screen value | Variant |
| --- | --- |
| 100 % of control | chain 2 C413A |

Same assay, conditions: Tom70cd C141A pretreated with 2 mM NEM, control = untreated C141A, n ≥ 6, read off a plot

| screen value | Variant |
| --- | --- |
| 100 % of control | chain 2 C104A |

Same assay, conditions: no NEM, this bar is the normalisation control (100%) of the C141A pair, not a comparison with wild type, n ≥ 6, read off a plot

| screen value | Variant |
| --- | --- |
| 100 % of control | chain 2 C104A |
